Data reported in PubChem BioAssay AID493014 (National Center for Advancing Translational Sciences (NCATS), 2011).
The list shows a part of the results. These are further read-outs of the screen, such as a control signal, another cell line or another target. No call is given for them. The list favours compounds with an active or inconclusive main result. Words in brackets tell the shape of the fitted curve; partial curves, single points and poor fits give uncertain potencies.

Assay: qHTS Assay to Find Inhibitors of Chronic Active B-Cell Receptor Signaling
Conditions: ABC-DLBCL IkBa-CBG/CBR reporter, luminescence ratio (green luciferase fused to IkBa over red control in TMD8 lymphoma cells), 4 h
In short: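 TMD8 ABC-DLBCL cells carrying doxycycline-inducible green luciferase fused to IkappaBalpha plus unfused red luciferase were exposed to compounds (up to 46 uM) for 4 hrs at 37C. Activity came from the overlap-corrected green/red luminescence ratio.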

[1] = measured here: CBR red luminescence, cell number
[2] = measured here: IkBa-CBG green luminescence

| SMILES | AC50 [1] | AC50 [2] |
| --- | --- | --- |
| Cc1ccc2nc(-c3ccc(NC(=O)COC(=O)c4ccco4)cc3)sc2c1 | 1.3 µM [rising, full curve] | – |
| COC(=O)c1sc(S(=O)(=O)N2CCC(C(=O)O)CC2)c(C(=O)OC)c1C | 6.51 µM [rising, single point] | – |
| CCCc1nc2ccccc2c(=O)n1/N=C/c1ccc(O)cc1O | 2.82 µM [falling, partial curve] | – |
| O=C(NCc1cccnc1)C1c2ccccc2C(=O)N1Cc1ccccc1 (configuration not stated) | 14.6 µM [rising, partial curve, poor fit] | – |
| CCc1ccc(OCC(=O)O/N=C(\N)c2cccnc2)cc1 | 3.55 µM [rising, single point] | – |
| Cc1nn(C(=O)c2ccccc2)c2c1C(=O)CC(C)(C)C2 | 8.2 µM [falling, partial curve, poor fit] | – |
| O=C(COc1ccc(Cl)cc1Br)N1CCN(c2ncccn2)CC1 | 29.1 µM [rising, single point] | 5.17 µM [falling, partial curve, poor fit] |
| Cc1ccc(NC(=S)N(CCCN2CCCC(C)C2)Cc2ccco2)cc1C (configuration not stated) | 6.31 µM [rising, partial curve, poor fit] | – |
| Cc1ccc(/C=N/NC(=O)c2ccco2)cc1 | 5.62 µM [falling, partial curve] | – |
| Cc1nc(Nc2ccc(Cl)c(Cl)c2)sc1C(=O)Nc1ccccc1 | 16.4 µM [falling, partial curve] | – |
| COCCNC(=O)/C(C#N)=C/c1cccc(OCc2ccccc2)c1 | 35.5 µM [falling, single point] | – |
| COc1ccc(N(CC(=O)Nc2ccc3c(c2)OCCO3)S(C)(=O)=O)c(OC)c1 | 3.16 µM [rising, full curve, poor fit] | – |
| O=C(Cc1nc2ccccc2[nH]1)c1cccc([N+](=O)[O-])c1 | 10 µM [falling, partial curve] | – |
| COc1ccccc1C(=O)NCCn1cc(SCC(=O)Nc2nnc(C)s2)c2ccccc21 | 14.1 µM [falling, single point] | – |
| COc1ccc(NC(=O)CSc2nnnn2C2CCCCC2)c(OC)c1 | 0.1 µM [rising, full curve, poor fit] | – |
| CCCC(=O)Nc1cc(S(=O)(=O)N(CC)CC)ccc1Cl | 18.4 µM [rising, single point] | – |
| COCCNC(=O)c1ccc2c(=O)n(CCOC)c(=O)[nH]c2c1 | 1.12 µM [falling, full curve, poor fit] | 11.2 µM [rising, partial curve, poor fit] |
| O=C(/C=C/c1ccc(Cl)cc1)Nc1nccs1 | 2.82 µM [falling, full curve, poor fit] | – |
| COC(=O)c1ccccc1NC(=O)CCCN1C(=O)C(c2ccccc2)Oc2cccnc21 (configuration not stated) | 1.78 µM [falling, full curve, poor fit] | – |
| Cc1cc(C)n2nc(SCC(=O)c3ccccc3)nc2n1 | 18.4 µM [falling, partial curve] | – |
| Cc1ccc(C(=O)OCC(=O)N2C(C)CCCC2C)cc1S(=O)(=O)N1CCOCC1 (configuration not stated) | 16.4 µM [rising, single point] | – |

| SMILES | AC50 [1] | AC50 [2] |
| --- | --- | --- |
| Cc1ccc(C2(C)NC(=O)N(CC(=O)Nc3ccccc3N3CCCC3)C2=O)cc1 (configuration not stated) | 6.51 µM [falling, single point] | – |
| Cc1ccc(NC(=O)c2ccccc2)cc1OC(=O)c1ccccc1 | 15.8 µM [falling, single point] | – |
| c1ccc(-c2csc3ncnc(NCc4ccccn4)c23)cc1 | 35.5 µM [falling, single point] | – |
| C/C(=N\NC(=O)c1ccc(C)cc1C)c1ccc2c(c1)OCO2 | 29.1 µM [falling, single point] | – |
| CCCn1nnc(NC(=O)c2ccc(Cl)cc2Cl)n1 | 10.3 µM [rising, partial curve, poor fit] | – |
| NNC(=O)c1cc2ccccc2[nH]1 | – | 25.1 µM [falling, single point] |
| CCOC(=O)C1=C(C)NC2=C(C(=O)CCC2)C1c1coc2ccccc2c1=O (configuration not stated) | 32.6 µM [rising, single point] | – |
| Cc1ccc(-n2c(C)nn(Cc3ccc([N+](=O)[O-])cc3)c2=O)cc1 | 0.562 µM [rising, full curve, poor fit] | – |
| O=C(O)CCCCCNc1nc(=S)[nH]c2ccccc12 | 13 µM [falling, partial curve] | – |
| CCCCc1ccc(-c2ccc(Br)cc2O)nc1 | 0.0411 µM [falling, full curve] | – |
| CCOC(=O)C1=C(O)/C(=C/c2ccc(-c3ccccc3C(=O)O)o2)SC1=Nc1ccc(C)cc1 | 12.6 µM [falling, partial curve, poor fit] | – |
| COc1ccc(-c2cnnn2-c2ccc(N)cc2)cc1OC | 29.1 µM [rising, single point] | 18.4 µM [falling, partial curve, poor fit] |
| CCOC(=O)N1CCN(S(=O)(=O)c2ccc(C(=O)Nc3ccc(F)cc3F)cc2)CC1 | 35.5 µM [rising, single point] | 12.6 µM [falling, partial curve] |
| O=C(Nc1nccs1)c1cccc(N2C(=O)c3cccc4c([N+](=O)[O-])ccc(c34)C2=O)c1 | 18.4 µM [falling, single point] | – |
| CC(C)c1ccc(NC2CCCN(C(=O)c3ccsc3)C2)cc1 (configuration not stated) | 2.51 µM [rising, partial curve, poor fit] | – |
| CCOC(=O)C1CCN(C(=O)CCc2c(C)nc3cc(-c4ccccc4)nn3c2C)CC1 | 11.2 µM [falling, partial curve, poor fit] | – |
| O=C(CCc1ccccc1)NC(=S)Nc1ccc(S(=O)(=O)N2CCOCC2)cc1 | 9.2 µM [rising, partial curve] | – |
| COc1ccc(/C=C/C(=O)OCC(=O)NC2CCCC(C)C2C)c(OC)c1 (configuration not stated) | 5.17 µM [rising, partial curve, poor fit] | – |
| CCOC(=O)N1CCN(Cc2nc3ccc([N+](=O)[O-])cc3c(=O)n2-c2ccccc2F)CC1 | 12.6 µM [rising, partial curve] | – |
| CN(C)c1ccc(N/C=C/C(=O)c2ccco2)cc1 | 32.6 µM [falling, single point] | – |
| CCCCn1c(SCc2c(C)noc2C)nc2cc(S(N)(=O)=O)ccc21 | 7.08 µM [rising, full curve] | – |

| SMILES | AC50 [1] | AC50 [2] |
| --- | --- | --- |
| NS(=O)(=O)c1cccc(NC(=O)CN2CCc3ccccc32)c1 | 10 µM [falling, partial curve, poor fit] | – |
| CC(=O)c1cccc2c(O)c(C3=Nc4ccccc4C3=O)[nH]c12 | 7.31 µM [falling, partial curve] | – |
| Brc1ccc(-c2noc(-c3ccccc3)n2)o1 | 31.6 µM [falling, single point] | – |
| CC(C)Cc1csc(NC(=O)c2ccccc2Cl)c1C(=O)O | 16.4 µM [falling, partial curve] | – |
| Cc1cc(C(=O)CSc2nnc(CCC(N)=O)n2C)c(C)n1C1CC1 | 32.6 µM [rising, partial curve, poor fit] | – |
| CCOc1ccc(NC(=O)CN2C(=O)/C(=C3\SC(=S)N(C4CCS(=O)(=O)C4)C3=O)c3ccccc32)cc1 (configuration not stated) | 5.01 µM [rising, full curve, poor fit] | – |
| COc1cc(C(=O)COC(=O)C2CCCCC2)cc(OC)c1OC | 29.1 µM [rising, single point] | – |
| O=C(O)CCC(=O)Nc1cccc(C(=O)Nc2ccc(Br)cc2)c1 | 35.5 µM [falling, partial curve, poor fit] | – |
| O=C1OCCN1C(=O)[C@H]1[C@H](c2ccc(Cl)cc2)C(c2cccc(Cl)c2)=NN1c1ccc(Br)cc1 | 16.4 µM [rising, partial curve, poor fit] | – |
| COC(=O)Cn1ncc(N2CC(C)OC(C)C2)c(Cl)c1=O (configuration not stated) | 3.98 µM [falling, full curve, poor fit] | – |
| Cc1cc(C)cc(OCC(=O)Nc2cc(C)on2)c1 | 1 µM [rising, full curve] | – |
| Cc1cccc(C(=O)NNC(=O)c2ccccc2[N+](=O)[O-])c1 | 11.2 µM [falling, partial curve, poor fit] | – |
| O=C1/C(=C/c2ccc([N+](=O)[O-])cc2)C=C(c2ccccc2)N1c1ccc(O)cc1 | 29.1 µM [falling, single point] | – |
| O=C(CSc1nnc(NC2CC2)s1)c1ccc[nH]1 | 23.1 µM [falling, partial curve] | – |
| Nc1n[nH]c(N)c1N=Nc1ccc2c(c1)OCO2 | 17.8 µM [falling, single point] | – |
| O=C(/C=C/c1ccccc1O)c1ccco1 | 15.8 µM [falling, single point] | – |
| N=c1n(CC(=O)c2cccs2)c2ccccc2n1Cc1ccccc1 | 15.8 µM [falling, partial curve, poor fit] | – |
| CCN(CC)C(=S)SCC(=O)c1ccc(Br)cc1 | – | 20.6 µM [falling, single point] |
| COCCNS(=O)(=O)c1ccc2c(c1)C(=NO)c1cc(S(=O)(=O)NCCOC)ccc1-2 | 35.5 µM [rising, single point] | – |
| C/C(=N\NC(=O)c1cc(O)cc(O)c1)c1ccc(NC(=O)Cc2ccccc2)cc1 | 7.08 µM [falling, partial curve] | – |
| Cc1ccc(S(=O)(=O)N2c3cc(C)ccc3OCC2C(C)(C)C)cc1 (configuration not stated) | 32.6 µM [rising, partial curve, poor fit] | – |

Quoted at random: three compounds from above.

| SMILES | AC50 [1] | AC50 [2] |
| --- | --- | --- |
| CCCCc1ccc(-c2ccc(Br)cc2O)nc1 | 0.0411 µM [falling, full curve] | – |
| Cc1cccc(C(=O)NNC(=O)c2ccccc2[N+](=O)[O-])c1 | 11.2 µM [falling, partial curve, poor fit] | – |
| CCOC(=O)C1=C(O)/C(=C/c2ccc(-c3ccccc3C(=O)O)o2)SC1=Nc1ccc(C)cc1 | 12.6 µM [falling, partial curve, poor fit] | – |
